Biological target: Mu-type opioid receptor (Homo sapiens, UniProt P35372)
Experiment: Agonist activity at human cloned mu opioid receptor by [35S]GTPgammaS binding assay
Type: functional

Amino acid sequences for entries named in this document (tags omitted).
UniProt P35372, whole entry: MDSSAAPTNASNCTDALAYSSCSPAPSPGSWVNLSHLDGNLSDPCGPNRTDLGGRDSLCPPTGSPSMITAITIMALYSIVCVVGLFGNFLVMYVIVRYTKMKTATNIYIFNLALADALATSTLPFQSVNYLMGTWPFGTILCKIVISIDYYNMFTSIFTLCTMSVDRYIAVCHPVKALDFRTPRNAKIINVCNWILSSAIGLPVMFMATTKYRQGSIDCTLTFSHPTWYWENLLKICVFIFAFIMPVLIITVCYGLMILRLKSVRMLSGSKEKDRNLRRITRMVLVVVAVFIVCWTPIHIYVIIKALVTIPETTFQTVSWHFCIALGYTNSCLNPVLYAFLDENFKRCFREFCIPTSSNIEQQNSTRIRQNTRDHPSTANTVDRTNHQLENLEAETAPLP

C[C@@]12CCCCC[C@@H](Cc3ccc(O)cc31)[C@@H]2N [DEZOCINE]
EC50: 38 nM

Source: ChEMBL document CHEMBL1152717, “Discovery of mu-opioid selective ligands derived from 1-aminotetralin scaffolds made via metal-catalyzed ring-opening reactions” (Bioorg Med Chem Lett, 2009)
